Results: PubChem BioAssay AID504465 (National Center for Advancing Translational Sciences (NCATS), 2011)
The whole screen tested about 2,100 compounds, of which about 210 (10%) were called active. Inconclusive means that the source gave no clear call. Such entries were picked first, then a sample of the others. Calls follow the shape of the dose curve; as a rule, active = well fitted inhibition curve with a large enough effect; inconclusive = small, poorly fitted or top-dose-only effect, or effect the other way; inactive = no such curve, though single readings can be large or run the other way. Where the call is inconclusive, the potency comes from a doubtful curve fit.

Test: IN Cell qHTS Assay for Inhibitors of the mTORC1 Signaling Pathway in MEF (Tsc2-/-, p53-/-) Cells: Sytravon; also: nearly all actives have a fitted effect of over 60% in size
Settings: phospho-rpS6 immunofluorescence, 24 h; series mostly up to 38.3 µM
Method in brief: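 Immunofluorescence of rpS6 phosphorylation (Ser235/236) in mouse embryonic fibroblasts lacking Tsc2 and p53, after 24 h compound exposure; Hoechst-normalized signal imaged, each well scored as % active cells relative to rapamycin (7.5 nM) and DMSO controls.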
Potency is read from the fitted curve at half-maximal effect.

| Compound | Potency |
| --- | --- |
| Cc1ccc(Cl)cc1N1CCN(C(=O)c2cnc(N3CCOCC3)c3ccccc23)CC1 | inconclusive: 18.5 µM [falling, single point] |
| O=C(Nc1cccs1)Nc1cc(C(F)(F)F)ccc1Cl | active: 9.27 µM |
| COc1ccc(C2=CC(c3ccc(F)cc3)n3ncc(C(=O)Nc4ccc(C)cc4)c3N2)cc1 (centres undefined) | inactive |
| Cc1ccc(N(CC(=O)NCCc2ccc(Cl)cc2)S(=O)(=O)N(C)C)cc1 | inconclusive: 0.736 µM [falling, full curve, poor fit] |
| CCCCN1C(=O)c2[nH]nc(-c3ccccc3O)c2C1c1cccc(OCc2ccccc2)c1 (centres undefined) | active: 20.7 µM |
| COc1ccccc1CNS(=O)(=O)c1cc(C(=O)Nc2cccc(C(F)(F)F)c2)ccc1F | inactive |
| Cc1cccc(OCC(=O)Nc2c(C)ccc3nsnc23)c1C | inconclusive: 26.1 µM [falling, single point] |
| Cc1nc2ccn(Cc3cccs3)c(=O)c2cc1C(=O)N1CCN(c2ccc(F)cc2)CC1 | inconclusive: 3.69 µM [falling, partial curve, poor fit] |
| CC(=O)c1ccc(C(=O)N(CCCN(C)C)c2nc3c(C)c(C)ccc3s2)cc1 | active: 14.7 µM |
| CC1Cc2cc(S(=O)(=O)CCC(=O)NCc3ccc(Cl)cc3)ccc2N1C(=O)C1CC1 (centres undefined) | inconclusive: 1.85 µM [falling, partial curve] |
| COc1ccccc1Cn1cc(C(=O)c2ccc(Cl)cc2)c(=O)c2ccccc21 | inconclusive: 4.65 µM [falling, full curve, poor fit] |
| CCc1ccc(C(=O)c2cnc3ccc(F)cc3c2S(=O)(=O)c2ccccc2)cc1 | active: 4.65 µM |
| Cc1ccc(CNc2oc(-c3ccc(COc4ccc(Cl)cc4)o3)nc2C#N)cc1 | inconclusive: 0.656 µM [falling, full curve, poor fit] |
| Cc1ccccc1OCc1cc(=O)n2c(-c3ccccc3)csc2n1 | inactive |
| CCOc1ccc(C2C(C(=O)OC)=C(C)NC3=C2C(=O)c2ccccc23)cc1OC (centres undefined) | inconclusive: 26.1 µM [falling, partial curve, poor fit] |
| COCCOC(=O)c1c(C)oc2c1cc(NS(=O)(=O)c1ccc(Cl)c(C)c1)c1ccccc12 | inconclusive: 5.21 µM [falling, single point] |
| CCc1ccc(-c2[nH]nc3nc(-c4cc(OC)ccc4OC)cc(C(=O)O)c23)cc1 | inconclusive: 0.261 µM [falling, full curve, poor fit] |
| COc1ccc(Cl)cc1NC(=O)CCn1nc(C)cc1C | inactive |
| CC(C)(C)c1ccc(C(=O)Nc2nnc3n2CCS3)cc1 | inconclusive: 3.69 µM [falling, full curve] |
| COc1ccccc1Nc1c2c(nc3ccc(NC(=O)c4ccc(N(C)C)cc4)cc13)CCCC2 | active: 2.07 µM |
| COc1cc(Nc2nc(-c3ccc(OC)c(OC)c3)nc3ccccc23)cc(OC)c1 | inconclusive: 20.7 µM [falling, single point] |
| Cc1ccc(CNC(=O)c2c(Nc3ccccc3C)sc(C(=O)c3ccc(F)cc3)c2N)cc1 | inconclusive: 18.5 µM [falling, single point] |

| Compound | Potency |
| --- | --- |
| O=C(CCn1c(=O)c2ccccc2n(CC(=O)Nc2ccc(F)cc2)c1=O)NCCc1ccccc1 | inconclusive: 26.1 µM [activator, single point] |
| COc1ccc(OC)c(CNC(=O)NCc2noc3ccc(C)cc23)c1 | inconclusive: 5.85 µM [falling, partial curve, poor fit] |
| Cc1oc2ccc(O)c(CN3CCCCCC3)c2c1C(=O)Nc1cccc(C(F)(F)F)c1 | inconclusive: 23.3 µM [falling, single point] |
| CCCCS(=O)(=O)c1oc(-c2ccc(F)cc2)nc1S(=O)(=O)c1ccccc1 | active: 4.14 µM |
| COc1ccccc1N1CCN(CCCNC(=O)c2cnn(-c3ccc(C)c(C)c3)c2C2CCN(C(=O)OC(C)(C)C)CC2)CC1 | inconclusive: 26.1 µM [falling, single point] |
| Cc1ccc(C2C=C(c3ccc(F)cc3)Nc3nc(CCCO)nn32)cc1 (centres undefined) | inconclusive: 0.0037 µM [activator, full curve, poor fit] |
| Cc1ccccc1Cn1cc(NC(=O)c2cc(-c3ccc(Cl)cc3)on2)cn1 | inactive |
| Cc1ccc(Cl)cc1N1CCN(C(=O)c2cnn(-c3ccc(Cl)cc3)c2C2CCNCC2)CC1 | active: 13.1 µM |
| COc1ccc(NC(=O)CSc2nc3ccccc3n2CC(=O)Nc2cccc(C)c2C)cc1 | inconclusive: 23.3 µM [falling, single point] |
| Cc1ccc(CCNC(=O)c2ccc(Cn3c(=O)c4cccn4c4cccnc43)cc2)cc1 | inconclusive: 26.1 µM [falling, single point] |
| CCc1cccc(NC(=O)c2oc3ccc4c(c3c2C)C(=O)CC(C)(C)O4)c1 | inactive |
| CCCNC(=O)C1CCN(Cc2cc3ccccc3n2Cc2ccccc2)CC1 | inactive |
| CCOC(=O)Cn1c(=O)n(-c2ccccc2OC)c2nc(-c3ccccc3F)nc(C(N)=O)c21 | inactive |
| CCOC(=O)c1c(C)oc2ncnc(Nc3cc(Cl)ccc3OC)c12 | inactive |
| CCCCN(C)CC(O)Cn1cc(/C=C/C(=O)c2ccc(C)cc2)c2ccccc21 (centres undefined) | inconclusive: 23.3 µM [falling, single point] |
| Cc1ccc(NC(=O)c2c(C)oc3ccc(O)c(CN4CCCCCC4)c23)cc1 | inactive |
| CC(C)S(=O)(=O)c1oc(-c2cccs2)nc1S(=O)(=O)c1ccc(F)cc1 | active: 0.927 µM |
| Cn1cc(-c2cc3n(n2)CCC(=O)N3CC(=O)NCc2ccc(Cl)cc2)c2ccccc21 | inactive |
| COc1ccc(Cl)cc1C1CC(=O)Nc2cc3c(cc21)OCCO3 (centres undefined) | inconclusive: 7.36 µM [falling, partial curve, poor fit] |
| COc1ccccc1CN1COc2ccc3c(oc(=O)c4ccccc43)c2C1 | inactive |
| CS(=O)(=O)N(CC(=O)NCCc1ccccc1)c1cc(C(F)(F)F)ccc1Cl | active: 8.26 µM |
| Cc1cccc(N2CCN(C(=O)c3cnn(-c4cccc(Cl)c4C)c3C3CCNCC3)CC2)c1C | inconclusive: 26.1 µM [falling, single point] |

Ordered by heavy-atom count (rising): some entries from above.

| Compound | Potency |
| --- | --- |
| Cc1oc2ccc(O)c(CN3CCCCCC3)c2c1C(=O)Nc1cccc(C(F)(F)F)c1 | inconclusive: 23.3 µM [falling, single point] |
| Cc1ccc(CCNC(=O)c2ccc(Cn3c(=O)c4cccn4c4cccnc43)cc2)cc1 | inconclusive: 26.1 µM [falling, single point] |
| COc1ccccc1N1CCN(CCCNC(=O)c2cnn(-c3ccc(C)c(C)c3)c2C2CCN(C(=O)OC(C)(C)C)CC2)CC1 | inconclusive: 26.1 µM [falling, single point] |
